PubChem BioAssay AID1259254 – NCATS | 2017

Screen: 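Genome-wide screen for genes that prevent DNA re-replication in cancer cells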 (primary screen)
System: human HCT116 colorectal cancer cells
Reagents: single siRNA against human genes
Timing: 3 days
Measurement: 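Imaged Hoechst DNA stain sorts each cell into a cycle phase by DNA amount; per plate, G2 fraction set to 0% for non-targeting and 100% for GMNN siRNA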
Direction: G2 robust z-score: higher = more G2 cells, more excess DNA replication
Rule for the call: 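Active siRNAs have a G2 robust z of 5 or more median absolute deviations over the median, which in these data means about 38% or higher of GMNN control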
Here is one part, drawn at random, of about 59,000 deposited reagents. Of all reagents, about 1,550 (2.6%) are marked active. 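G2 share is only a proxy for re-replication; each gene was hit by three separate siRNAs, and active genes were retested.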 The numbers tell different reagents against one gene apart. Further read-outs or replicates are left out here. No sequences are given here. Not stated in the record: the amount of reagent.

PPM1G (GeneID 5496) #1 — G2 robust z-score: -1.1; activity call: inactive
PPM1G (GeneID 5496) #2 — G2 robust z-score: 0.607; activity call: inactive
PPM1G (GeneID 5496) #3 — G2 robust z-score: 3.42; activity call: inactive
TP53INP1 (GeneID 94241) #1 — G2 robust z-score: 0.6; activity call: inactive
TP53INP1 (GeneID 94241) #2 — G2 robust z-score: -0.647; activity call: inactive
TP53INP1 (GeneID 94241) #3 — G2 robust z-score: 0.625; activity call: inactive
CSPG4 (GeneID 1464) #1 — G2 robust z-score: 0.39; activity call: inactive
CSPG4 (GeneID 1464) #2 — G2 robust z-score: -0.419; activity call: inactive
CSPG4 (GeneID 1464) #3 — G2 robust z-score: -0.514; activity call: inactive
OIT3 (GeneID 170392) #1 — G2 robust z-score: -0.526; activity call: inactive
OIT3 (GeneID 170392) #2 — G2 robust z-score: -0.216; activity call: inactive
OIT3 (GeneID 170392) #3 — G2 robust z-score: -0.2; activity call: inactive
VWA7 (GeneID 80737) #1 — G2 robust z-score: 5.62; activity call: active
VWA7 (GeneID 80737) #2 — G2 robust z-score: -0.914; activity call: inactive
VWA7 (GeneID 80737) #3 — G2 robust z-score: 4.18; activity call: inactive

Taken from above.
VWA7 (GeneID 80737) #3, activity call → inactive
Value of VWA7 (GeneID 80737) #2 in “G2 robust z-score”: -0.914
VWA7 (GeneID 80737) #1, activity call: active

Next reagents:
BBS7 (GeneID 55212) #1 — G2 robust z-score: -0.493; activity call: inactive
BBS7 (GeneID 55212) #2 — G2 robust z-score: -0.128; activity call: inactive
BBS7 (GeneID 55212) #3 — G2 robust z-score: -0.319; activity call: inactive
TRIM9 (GeneID 114088) #1 — G2 robust z-score: 0.186; activity call: inactive
TRIM9 (GeneID 114088) #2 — G2 robust z-score: -0.858; activity call: inactive
TRIM9 (GeneID 114088) #3 — G2 robust z-score: -0.873; activity call: inactive
SLC9A5 (GeneID 6553) #1 — G2 robust z-score: 0.499; activity call: inactive
SLC9A5 (GeneID 6553) #2 — G2 robust z-score: -1.25; activity call: inactive
SLC9A5 (GeneID 6553) #3 — G2 robust z-score: 1.4; activity call: inactive
PAFAH1B1 (GeneID 5048) #1 — G2 robust z-score: 1.48; activity call: inactive
PAFAH1B1 (GeneID 5048) #2 — G2 robust z-score: -0.741; activity call: inactive
PAFAH1B1 (GeneID 5048) #3 — G2 robust z-score: 2.17; activity call: inactive
SPRY4 (GeneID 81848) #1 — G2 robust z-score: 1.14; activity call: inactive
SPRY4 (GeneID 81848) #2 — G2 robust z-score: 0.447; activity call: inactive
SPRY4 (GeneID 81848) #3 — G2 robust z-score: 4.14; activity call: inactive
